Reference: publication PMC4158885 (The EMBO Journal, 2014)
Substitutions are numbered along the chain they refer to. Results are given in words; binding and its absence hold for the method and conditions named. Some binding calls cover weakened binding; strength is not graded here. Sequences can lack the tags named with a protein.

Key:
[1] = target: T1, scPan2 E912A (active site mutant) (Saccharomyces cerevisiae) (UniProt P53010); test: co-purification of a co-expressed complex (StrepTactin affinity chromatography); Pan2–Pan3 complexes expressed in S. cerevisiae with a Strep-II affinity tag and purified on StrepTactin
T1 sequence: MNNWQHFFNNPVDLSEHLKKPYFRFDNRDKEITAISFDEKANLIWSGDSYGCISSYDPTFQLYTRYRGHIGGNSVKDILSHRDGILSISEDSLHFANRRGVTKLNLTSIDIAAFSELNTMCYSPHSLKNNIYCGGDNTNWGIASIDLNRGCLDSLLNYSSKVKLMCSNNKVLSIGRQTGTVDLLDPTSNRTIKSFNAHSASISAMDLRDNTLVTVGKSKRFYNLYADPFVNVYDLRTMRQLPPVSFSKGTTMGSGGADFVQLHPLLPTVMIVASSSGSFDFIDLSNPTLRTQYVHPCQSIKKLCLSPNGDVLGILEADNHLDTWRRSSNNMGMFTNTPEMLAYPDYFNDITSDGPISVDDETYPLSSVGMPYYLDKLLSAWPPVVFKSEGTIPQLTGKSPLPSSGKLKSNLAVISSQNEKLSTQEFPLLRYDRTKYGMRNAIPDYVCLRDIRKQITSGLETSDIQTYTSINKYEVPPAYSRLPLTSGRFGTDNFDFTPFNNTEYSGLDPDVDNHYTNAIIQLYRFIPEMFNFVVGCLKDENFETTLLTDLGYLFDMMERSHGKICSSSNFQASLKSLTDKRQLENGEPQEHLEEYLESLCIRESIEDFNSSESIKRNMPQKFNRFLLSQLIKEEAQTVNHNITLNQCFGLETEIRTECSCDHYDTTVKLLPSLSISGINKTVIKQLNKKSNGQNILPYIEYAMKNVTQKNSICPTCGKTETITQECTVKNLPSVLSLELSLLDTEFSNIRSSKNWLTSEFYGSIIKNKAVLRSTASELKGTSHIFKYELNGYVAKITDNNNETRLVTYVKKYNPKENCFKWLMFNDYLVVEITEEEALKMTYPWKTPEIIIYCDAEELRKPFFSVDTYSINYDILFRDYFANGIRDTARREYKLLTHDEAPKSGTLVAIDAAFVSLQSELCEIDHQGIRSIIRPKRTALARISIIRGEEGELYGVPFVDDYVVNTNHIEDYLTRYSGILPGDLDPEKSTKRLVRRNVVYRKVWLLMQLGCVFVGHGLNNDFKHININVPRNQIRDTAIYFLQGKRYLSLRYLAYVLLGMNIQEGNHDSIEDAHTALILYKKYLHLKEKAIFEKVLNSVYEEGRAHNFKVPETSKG

[2] = target: T2, Saccharomyces cerevisiae Pan2 (scPan2), full length, of the recombinant scPan2–Pan3 complex (Saccharomyces cerevisiae) (UniProt P53010); test: as above
T2 sequence: T1 sequence with A912E

binding [1]: binds
binding [2]: binds
B1: Saccharomyces cerevisiae Pan3 (scPan3), full length, of the recombinant scPan2–Pan3 complex (natural protein, UniProt P36102 1-679, looked up)
chain: MDKINPDWAKDIPCRNITIYGYCKKEKEGCPFKHSDNTTATTINDVPPPIDVGEATTPTMTSVPKFNAKVSASFTPMTVGSDSLTTVTNTTSAATNATGNIAMAATSATASTVNPMINPIVNSSLVNNNNNNSNISISIPTTASSSNYDPFNAPIFTPSSTSSIHTNANAHSFPFPSIANSGGININATDDNSNNMSMANNVPPPMQPPPIESSNLKYPRIYPPPHSLLQYHLYAPEQPSSLKSLLKPNERSADQLFIPNNIREDLTKKNLSILQVFPSSGKVIPSIVQDYFNLVPLNFNNNDFLNKTTLFKVFSNYDGKAYVLKRLPNIDKSMNPNKISKIYQIWSKINCTNLIKFRDIFQTTKFGDLSICLVFDYYPNSLSLYDYHFVNFPKFPITNNYLWIYLVQLTNVINSIHSQNLSIGNTLNWRKVLITGDPGRIKLSHCNFMDLLFNDDTDTVVSSGGSTIEGQQQLDYKYLGELLFNLSINIENSNNNTAPKEYRLEEITPQSIDDMRQIDDKFKDVLKYLISDNGDSKKSIHDLTSHFYDKMFMVLESSQTYTEYMESVLSRELENGRLFRLVNKLNCIFGRIESRIDINWSESGTKFPIILFYDYVFHQVDSNGKPIMDLTHVLRCLNKLDAGIQEKLMLVTPDELNCIIISYKELKDLIESTFRSITQ
notes: Pan3, Saccharomyces cerevisiae; Two copies stand in the scPan2–Pan3 heterotrimer by nanoESI-MS
